Results deposited as PubChem BioAssay AID1159584 (Peter MacCallum Cancer Centre, 2016).

- Test: 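Knock-downs that harm CDH1-null cells more than parental MCF10A cells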 (primary screen)
- Cell system: human MCF10A breast epithelial cells, parental and CDH1-null
- Knock-down reagent: siRNA against human genes
- Read-out: 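ATP luminescence (CellTiter-Glo) viability per line relative to mean mock wells over all plates, and the ratio of CDH1-null to parental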
- Direction: CDH1-null / parental viability ratio: higher = CDH1-null cells survive relatively better than parental; CDH1-null viability vs mock: higher = more viable CDH1-null cells; parental viability vs mock: higher = more viable parental cells
The whole screen tested about 18,000 reagents; this is an unselected part. Reagents against one gene are numbered here. No sequences are given here. Not stated in the record: the amount of reagent, the time to read-out.

CDH1-null / parental viability ratio,CDH1-null viability vs mock (fraction of mock),parental viability vs mock (fraction of mock),target,siRNA no.
1.23,0.92,0.75,DNAAF3,1
1.62,0.6,0.37,OR11H6,1
1.14,1.12,0.98,SLC22A11,1
0.98,0.8,0.82,CPT1A,1
0.91,0.82,0.9,CAPG,1
1.06,0.72,0.68,CENPW,1
0.84,0.57,0.68,AK9,1
1.23,0.9,0.73,AK9,2
0.79,0.52,0.66,AK9,3
0.96,0.69,0.72,DDX21,1
1.23,0.92,0.75,TNS3,1
0.82,0.51,0.62,NOL12,1
1.06,0.89,0.84,USP27X,1
1.18,0.9,0.76,CCDC159,1
0.95,0.8,0.84,RSBN1,1
1.11,0.81,0.73,DCAF6,1
0.75,0.83,1.1,LTK,1
0.82,0.82,1,DCLRE1C,1
0.5,0.14,0.28,DDX19B,1
0.9,0.78,0.87,HBG2,1
0.96,0.65,0.68,RNASE13,1
1.22,0.78,0.64,INTS2,1
0.91,0.73,0.8,MITF,1
0.73,0.52,0.71,TNPO2,1
1.1,0.97,0.88,CES3,1
0.87,0.67,0.77,SPATA21,1
1.42,0.78,0.55,CLDN14,1
1,0.26,0.26,PSMD6,1
1.13,1.02,0.9,INTS13,1
0.79,0.85,1.08,TRIM46,1
1.02,0.64,0.63,CCS,1
0.59,0.48,0.81,IQSEC2,1
0.96,0.86,0.9,REL,1
0.83,0.78,0.94,LYPD8,1
1.03,0.74,0.72,SEC11A,1
1.26,0.88,0.7,PTPRT,1
1.05,0.61,0.58,PCED1A,1
1.52,0.7,0.46,ZNF443,1
0.94,0.6,0.64,PKD1L1,1
1.25,0.7,0.56,C2orf66,1

9 entries already listed, ordered by “CDH1-null / parental viability ratio”, lowest first:
CDH1-null / parental viability ratio,CDH1-null viability vs mock (fraction of mock),parental viability vs mock (fraction of mock),target,siRNA no.
0.79,0.52,0.66,AK9,3
0.82,0.51,0.62,NOL12,1
0.84,0.57,0.68,AK9,1
0.91,0.82,0.9,CAPG,1
0.96,0.69,0.72,DDX21,1
1.06,0.72,0.68,CENPW,1
1.06,0.89,0.84,USP27X,1
1.23,0.9,0.73,AK9,2
1.23,0.92,0.75,TNS3,1

Further reagents:
CDH1-null / parental viability ratio,CDH1-null viability vs mock (fraction of mock),parental viability vs mock (fraction of mock),target,siRNA no.
1,0.76,0.76,WDR82,1
1.14,0.8,0.7,PGF,1
1.04,0.94,0.9,OR11H4,1
0.81,0.75,0.93,COIL,1
1,0.96,0.96,ADCY10,1
0.86,0.69,0.8,OR3A1,1
1.18,1.06,0.9,G3BP1,1
0.81,0.42,0.52,RBMX2,1
0.96,0.73,0.76,DNAL1,1
1.02,1.06,1.04,MMS19,1
1.14,0.89,0.78,TTC12,1
0.95,0.36,0.38,GCA,1
0.71,0.44,0.62,TOR2A,1
1.32,1,0.76,SLC12A4,1
0.74,0.64,0.86,SYT17,1
0.96,0.79,0.82,SACK1G,1
1,1.04,1.04,PARG,1
0.95,0.76,0.8,PCGF6,1
1.38,0.72,0.52,IMPA2,1
1.06,0.83,0.78,FOXJ3,1
0.92,0.72,0.78,CYP24A1,1
1.17,0.9,0.77,PPP2R2D,1
1.43,0.96,0.67,CD33,1
0.97,0.87,0.9,NDUFS1,1
0.94,0.68,0.72,NANOG,1
1.05,0.67,0.64,TMEM201,1
1.09,1.06,0.97,PLCZ1,1
0.84,0.66,0.79,EXOSC2,1
